{"source": "PubChem BioAssay AID1259308 (NCATS, 2017)", "assay": "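Knock-downs that increase output of a recombinant reporter protein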 (primary screen)", "cell system": "human HEK293 embryonic kidney cells stably expressing firefly luciferase (HEK-CMV-Luc2-Hygro)", "reagent": "single siRNA against human genes, 0.8 pmol siRNA per well", "duration": "72 h", "read-out": "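Reporter luminescence and viable-cell signal on separate replicate plates, given as percent of non-targeting control and median/MAD z-scores, plus per-cell luciferase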", "direction": "total luciferase, z-score and total luciferase, % of control: higher = more reporter protein produced", "call rule": "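Active when the median/MAD z-score for overall luciferase is greater than 3; a gene was taken forward for validation with new siRNAs if at least two of its three siRNAs passed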", "calls": "active = raised luciferase; inactive = no rise", "note": "Shown is a random part of about 59,000 deposited reagents. About 1,510 of them (2.6%) were called active. 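Calls use total luciferase alone and ignore viability, so some active siRNAs may act by altering cell number.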 Unmarked entries are inactive. Reagents against one gene are numbered here. Not all columns of the deposit are shown."}
{"gene symbol": "CASD1 (CAS1 domain sialic acid O acetyltransferase 1)", "reagent": 1, "total luciferase, z-score": "3.22 (active)", "total luciferase, % of control": 146}
{"gene symbol": "CASD1 (CAS1 domain sialic acid O acetyltransferase 1)", "reagent": 2, "total luciferase, z-score": -0.229, "total luciferase, % of control": 77.3}
{"gene symbol": "CASD1 (CAS1 domain sialic acid O acetyltransferase 1)", "reagent": 3, "total luciferase, z-score": -0.349, "total luciferase, % of control": 74.9}
{"gene symbol": "GABRG3 (gamma-aminobutyric acid type A receptor subunit gamma3)", "reagent": 1, "total luciferase, z-score": -0.0155, "total luciferase, % of control": 81.6}
{"gene symbol": "GABRG3 (gamma-aminobutyric acid type A receptor subunit gamma3)", "reagent": 2, "total luciferase, z-score": 0.829, "total luciferase, % of control": 98.4}
{"gene symbol": "GABRG3 (gamma-aminobutyric acid type A receptor subunit gamma3)", "reagent": 3, "total luciferase, z-score": 1.58, "total luciferase, % of control": 113}
{"gene symbol": "GBE1 (1,4-alpha-glucan branching enzyme 1)", "reagent": 1, "total luciferase, z-score": -0.173, "total luciferase, % of control": 78.4}
{"gene symbol": "GBE1 (1,4-alpha-glucan branching enzyme 1)", "reagent": 2, "total luciferase, z-score": -0.744, "total luciferase, % of control": 67.1}
{"gene symbol": "GBE1 (1,4-alpha-glucan branching enzyme 1)", "reagent": 3, "total luciferase, z-score": -0.225, "total luciferase, % of control": 77.4}
{"gene symbol": "TAF7L (TATA-box binding protein associated factor 7 like)", "reagent": 1, "total luciferase, z-score": -2.11, "total luciferase, % of control": 39.9}
{"gene symbol": "TAF7L (TATA-box binding protein associated factor 7 like)", "reagent": 2, "total luciferase, z-score": -0.439, "total luciferase, % of control": 73.2}
{"gene symbol": "TAF7L (TATA-box binding protein associated factor 7 like)", "reagent": 3, "total luciferase, z-score": -0.586, "total luciferase, % of control": 70.2}
{"gene symbol": "MTMR2 (myotubularin related protein 2)", "reagent": 1, "total luciferase, z-score": -1.02, "total luciferase, % of control": 61.6}
{"gene symbol": "MTMR2 (myotubularin related protein 2)", "reagent": 2, "total luciferase, z-score": -0.6, "total luciferase, % of control": 70}
{"gene symbol": "MTMR2 (myotubularin related protein 2)", "reagent": 3, "total luciferase, z-score": -0.967, "total luciferase, % of control": 62.6}
{"gene symbol": "SIM2 (SIM bHLH transcription factor 2)", "reagent": 1, "total luciferase, z-score": -1.25, "total luciferase, % of control": 56.9}
{"gene symbol": "SIM2 (SIM bHLH transcription factor 2)", "reagent": 2, "total luciferase, z-score": 0.0246, "total luciferase, % of control": 82.4}
{"gene symbol": "SIM2 (SIM bHLH transcription factor 2)", "reagent": 3, "total luciferase, z-score": -1.08, "total luciferase, % of control": 60.5}
{"gene symbol": "NUTM2F (NUT family member 2F)", "reagent": 1, "total luciferase, z-score": 0.0557, "total luciferase, % of control": 83}
{"gene symbol": "NUTM2F (NUT family member 2F)", "reagent": 2, "total luciferase, z-score": -1.09, "total luciferase, % of control": 60.1}
{"gene symbol": "NUTM2F (NUT family member 2F)", "reagent": 3, "total luciferase, z-score": 0.0996, "total luciferase, % of control": 83.9}
{"gene symbol": "ATP11AUN (ATP11A upstream neighbor lncRNA)", "reagent": 1, "total luciferase, z-score": -2, "total luciferase, % of control": 42.1}
{"gene symbol": "ATP11AUN (ATP11A upstream neighbor lncRNA)", "reagent": 2, "total luciferase, z-score": 1.29, "total luciferase, % of control": 108}
{"gene symbol": "ATP11AUN (ATP11A upstream neighbor lncRNA)", "reagent": 3, "total luciferase, z-score": -0.626, "total luciferase, % of control": 69.4}
{"gene symbol": "ENTREP2 (endosomal transmembrane epsin interactor 2)", "reagent": 1, "total luciferase, z-score": -0.976, "total luciferase, % of control": 62.5}
{"gene symbol": "ENTREP2 (endosomal transmembrane epsin interactor 2)", "reagent": 2, "total luciferase, z-score": 1.21, "total luciferase, % of control": 106}
{"gene symbol": "ENTREP2 (endosomal transmembrane epsin interactor 2)", "reagent": 3, "total luciferase, z-score": 0.0112, "total luciferase, % of control": 82.1}
{"gene symbol": "CASTOR3P (CASTOR family member 3, pseudogene)", "reagent": 1, "total luciferase, z-score": 0.838, "total luciferase, % of control": 98.6}
{"gene symbol": "CASTOR3P (CASTOR family member 3, pseudogene)", "reagent": 2, "total luciferase, z-score": -1.01, "total luciferase, % of control": 61.8}
{"gene symbol": "CASTOR3P (CASTOR family member 3, pseudogene)", "reagent": 3, "total luciferase, z-score": -0.114, "total luciferase, % of control": 79.6}
{"gene symbol": "HLA-DQA1 (major histocompatibility complex, class II, DQ alpha 1)", "reagent": 1, "total luciferase, z-score": 0.205, "total luciferase, % of control": 86}
{"gene symbol": "HLA-DQA1 (major histocompatibility complex, class II, DQ alpha 1)", "reagent": 2, "total luciferase, z-score": 1.92, "total luciferase, % of control": 120}
{"gene symbol": "HLA-DQA1 (major histocompatibility complex, class II, DQ alpha 1)", "reagent": 3, "total luciferase, z-score": 1.44, "total luciferase, % of control": 111}
{"gene symbol": "HLA-DQA1 (major histocompatibility complex, class II, DQ alpha 1)", "reagent": 4, "total luciferase, z-score": 0.0137, "total luciferase, % of control": 82.2}
{"gene symbol": "HLA-DQA1 (major histocompatibility complex, class II, DQ alpha 1)", "reagent": 5, "total luciferase, z-score": -0.418, "total luciferase, % of control": 73.6}
{"gene symbol": "HLA-DQA1 (major histocompatibility complex, class II, DQ alpha 1)", "reagent": 6, "total luciferase, z-score": -0.0471, "total luciferase, % of control": 81}
{"gene symbol": "PGBD3 (piggyBac transposable element derived 3)", "reagent": 1, "total luciferase, z-score": -0.0935, "total luciferase, % of control": 80}
{"gene symbol": "PGBD3 (piggyBac transposable element derived 3)", "reagent": 2, "total luciferase, z-score": -0.722, "total luciferase, % of control": 67.5}
{"gene symbol": "PGBD3 (piggyBac transposable element derived 3)", "reagent": 3, "total luciferase, z-score": -0.208, "total luciferase, % of control": 77.8}
{"gene symbol": "GMNC (geminin coiled-coil domain containing)", "reagent": 1, "total luciferase, z-score": 0.969, "total luciferase, % of control": 101}
{"gene symbol": "GMNC (geminin coiled-coil domain containing)", "reagent": 2, "total luciferase, z-score": "4.42 (active)", "total luciferase, % of control": 170}
{"gene symbol": "GMNC (geminin coiled-coil domain containing)", "reagent": 3, "total luciferase, z-score": 0.289, "total luciferase, % of control": 87.6}

As entered above:
Value of MTMR2 (myotubularin related protein 2) #2 under “total luciferase, z-score”: -0.6
Entry of CASTOR3P (CASTOR family member 3, pseudogene) #1 in “total luciferase, z-score”: 0.838
GMNC (geminin coiled-coil domain containing) #2, total luciferase, z-score: 4.42 (active)
GMNC (geminin coiled-coil domain containing) #1, total luciferase, % of control → 101
GABRG3 (gamma-aminobutyric acid type A receptor subunit gamma3) #3, total luciferase, % of control = 113
Entry of GBE1 (1,4-alpha-glucan branching enzyme 1) #1 under “total luciferase, % of control”: 78.4
